Measurements as given in PubChem BioAssay AID504434 (National Center for Advancing Translational Sciences (NCATS), 2011).
The shares of active, inactive and inconclusive entries below differ from those in the screen. Where the call is inconclusive, the potency comes from a doubtful curve fit. The source made the active and inactive calls. Calls come from the whole dose curve; as a rule, active = well fitted curve in the direction sought with a large enough effect; inconclusive = small, poorly fitted or top-dose-only effect, or effect the other way, or another doubt; inactive = no such curve, though single readings can be large or run the other way.

Assay: Secondary Assay for lipid storage modulators: AML12 cell LDSA assay for probe SAR
Conditions: AML12 lipid droplet accumulation, BODIPY 493/503 imaging, oleate; series mostly up to 46.1 µM
Text: NIH Molecular Libraries Probe Production Centers Network [MLPCN] NIH Chemical Genomics Center [NCGC] MLPCN Grant: 1 R03 MH085686-01 Assay Submitter (PI): Beller, Mathias; Max-Planck-Institut fur Biophysikalische Chemie NCGC Assay Overview: Storing lipids as a reservoir for energy or the anabolism of elementary metabolites is a common feature of probably all cells and is conserved from bacteria to humans. The universal cellular lipid storage organelle is the so-called lipid storage droplet (LD). Although ubiquitous, LDs share a simple structure composed of a hydrophobic core that harbors the storage lipids, which is shielded by a droplet-specific phospholipid monolayer to which proteins are attached. The current model of LD biogenesis involves an incorporation of the lipid core into the membrane leaflets of the endoplasmic reticulum (ER) followed by a subsequent budding-like maturation of a LD, which ultimately pinches off. Once released, LD volume can increase by localized lipogenesis or fusion of existing droplet. Storage lipids are re-mobilized enzymatically by lipase activity. Lipase regulation in the adipocyte is heavily studied and involves multiple components including catecholamine signaling, the LD-associated proteins Perilipin and comparative gene identification (CGI-58) and at least two lipases named hormone sensitive lipase (HSL) and adipocyte triglyceride lipase (ATGL). LD regulation outside of the adipocyte is poorly understood and only few components are known. However, there is an urgent need to learn more about ectopic fat depots as mislocalized storage of lipids, for example in the liver or muscle, is an eminent health problem associated with insulin resistance or the metabolic syndrome.
NCGC Assay Protocol Summary: The assay was performed with AML12 cells, using an oleic acid feeding protocol similar to the S3 assay. We dispensed 4 uL of cells to give 700 cells/well into Greiner bio-one 1,536-well plates (black walled, clear bottom). Triacsin C (Sigma-Aldrich T-4540), an inhibitor of long-chain fatty acyl CoA synthetase that blocks synthesis of triglycerides, was used as a positive control for lipid under-storage using a final concentration of 20 uM. The orexin antagonist, SB408124 - previously identified to stimulate lipid over-storage, was used as a positive control for lipid over-storage using a final concentration of 20 uM. A total of 23 nL of compound solution of different concentrations were transferred to the assay plates using a Kalypsys pin tool equipped with a 1,536-pin array containing 10-nL slotted pins (FP1S10, 0.457-mm diameter, 50.8 mm long; V&P Scientific). One microliter of oleic acid was added (400 uM final concentration), and the plate was lidded with stainless steel rubber gasket lined lids containing pinholes. After 18-24 h incubation at […] and 95% humidity, 4 uL of the dyes BODIPY 493/503 (Molecular Probes) and the Cell Tracker Red CMTPX dye (Molecular Probes) were added to the wells to stain lipid droplets and enumerate cell number, respectively. Fluorescence was detected by excitation of the fluorophores with a 488-nm laser on an Acumen Explorer (TTP Lab Tech). The total intensity in channel 2 (500-530 nm) reflected lipid droplet accumulation. Cells were detected using channel 3 (575-640 nm) with 5-um width and 100-um depth filters. The ratio of the number of objects in PMT channel 2 over the number of objects in PMT channel 3 was also calculated. Percent activity was computed relative to an internal control (100% inhibited lipid droplet deposition due to the presence of 20 uM Triacsin C), which was added to 32 wells/plate.

With `Cc1nc(SC(C)C(=O)Nc2nc(-c3ccccc3)cs2)n(CC2CCCO2)c1C` (stereo not given) as the compound, how does the Potency read?
Its Potency is inconclusive: 0.281 µM [falling, full curve, poor fit].

Which Potency does the source give for `CCOC(=O)C1CCN(C(=O)C(C)(C)NC(=O)Nc2ccc(-c3ccccc3)cc2)CC1` here?
Its Potency is inconclusive: 14.1 µM [falling, partial curve, poor fit].

With `CCOC(=O)C1CCCN(C(=O)C2(NC(=O)Nc3ccc(F)cc3F)CCCCC2)C1` (stereo not given) as the compound, how does the Potency read?
The Potency was inconclusive: 0.0003 µM.

Which Potency does the source give for `COc1ccc(-n2ncc3c2CCCC3NC(=O)c2ccccn2)cc1` (stereo not given) here?
Its Potency is inconclusive: 0.0158 µM [falling, full curve].

For `O=C(NC1CCCc2c1cnn2CCO)c1ccccn1` (stereo not given), which Potency is on record?
Its Potency is inconclusive: 0.0035 µM [falling, full curve, poor fit].

For `O=C(Nc1cccc2c1cnn2-c1ccc(F)cc1)c1ccccn1`, which Potency is on record?
The Potency was inconclusive: 17.7 µM [falling, partial curve, poor fit].

For `CCOC(=O)C1CCN(C(=O)C(C)(C)NC(=O)Nc2ccc(N(C)C)cc2)CC1`, which Potency is on record?
The Potency was inconclusive: 12.5 µM [falling, partial curve, poor fit].

For `Cc1ccc(-c2cnc(SCC(=O)Nc3nc(C)cs3)n2Cc2ccco2)cc1`, which Potency is on record?
Its Potency is “inactive”.

For `O=C(Cc1cccs1)Nc1nc(-c2ccc(F)cc2)cs1`, which Potency is on record?
Its Potency is “inactive”.

With `CC(=O)NCc1ccc(-c2csc(NC(=O)Cc3cccs3)n2)cc1` as the compound, how does the Potency read?
The Potency was inconclusive: 8.88 µM [activator, partial curve].

With `O=C(CSc1nnc(NCc2ccccc2)s1)Nc1nc(-c2ccc(F)c(F)c2)cs1` as the compound, how does the Potency read?
The Potency was “inactive”.

With `COc1ccc(Cl)cc1NC(=S)N1CCN(c2ccccc2)CC1` as the compound, how does the Potency read?
Its Potency is “inactive”.

For `CCOc1ccc(CCNC(=O)c2cc3sccc3n2C)cc1`, which Potency is on record?
Its Potency is inconclusive: 1.25 µM [activator, full curve, poor fit].

For `CCOc1ccc(CCNC(=O)c2cc3sccc3[nH]2)cc1OCC`, which Potency is on record?
The Potency was “inactive”.

With `CCn1c(C(=O)NCCc2ccc(OC)c(OC)c2)cc2sc(Cl)cc21` as the compound, how does the Potency read?
Its Potency is inconclusive: 0.0039 µM [falling, full curve, poor fit].

With `O=C(NC1CCCc2c1cnn2-c1cc(F)cc(F)c1)c1ccc(F)cc1Cl` (stereo not given) as the compound, how does the Potency read?
The Potency was inconclusive: 0.0006 µM [activator].

Which Potency does the source give for `CC(C)(C)OC(=O)NCCOCCOCCOc1cccc(-n2ncc3c2CCCC3NC(=O)c2ccccn2)c1` (stereo not given) here?
Its Potency is inconclusive: 0.005 µM [falling, full curve, poor fit].

Which Potency does the source give for `O=C(NC1CCCc2c1cnn2-c1ccccc1F)c1ccc2ncccc2c1` (stereo not given) here?
The Potency was “inactive”.

For `COc1ccc(CCNC(=O)c2cc3sccc3n2Cc2ccc(F)cc2)cc1OC`, which Potency is on record?
Its Potency is active: 3.15 µM.

For `O=C(NC1CCCc2c1cnn2-c1ccc(F)cc1F)C1CC1` (stereo not given), which Potency is on record?
Its Potency is inconclusive: 0.0028 µM [falling, full curve, poor fit].

Which Potency does the source give for `CCOC(=O)C1CCN(C(=O)C(C)(C)NC(=O)Nc2cccc(OC)c2)CC1` here?
Its Potency is inconclusive: 1.25 µM [falling, full curve, poor fit].

Which Potency does the source give for `CC(C)(C)OC(=O)N1CCCCC1C(=O)NC1CCCc2c1cnn2-c1ccc(F)cc1F` (stereo not given) here?
The Potency was inconclusive: 31.5 µM [falling, partial curve, poor fit].

For `COc1ccccc1NC(=S)N1CCN(c2cc(Cl)ccc2C)CC1`, which Potency is on record?
Its Potency is “inactive”.

With `O=C(NC1CCCc2c1cnn2-c1cccc(O)c1)c1ccccn1` (stereo not given) as the compound, how does the Potency read?
Its Potency is inconclusive: 0.223 µM [falling, full curve, poor fit].

Which Potency does the source give for `CCN(CC)C(=O)C1CCN(C(=O)C(C)(C)NC(=O)Nc2ccccc2Cl)CC1` here?
Its Potency is inconclusive: 39.7 µM [falling, partial curve, poor fit].

With `COc1ccc(CCNC(=O)c2cc3sccc3n2Cc2ccc(Cl)cc2)cc1OC` as the compound, how does the Potency read?
The Potency was active: 0.0307 µM.

Which Potency does the source give for `COc1ccc(NC(=S)N2CCN(c3cccc(Cl)c3)CC2)c(OC)c1` here?
Its Potency is “inactive”.

Which Potency does the source give for `Cc1ccc(CC(=O)Nc2nc(-c3cccs3)cs2)cc1` here?
Its Potency is “inactive”.

For `O=C(NC1CCCc2c1cnn2-c1ccc(F)cc1F)C1CCCCC1` (stereo not given), which Potency is on record?
Its Potency is “inactive”.

With `CCOc1ccc(CCNC(=O)c2cc3sc(CC)cc3n2C)cc1OCC` as the compound, how does the Potency read?
Its Potency is inconclusive: 0.0122 µM [falling, full curve, poor fit].

With `O=C(NC1CCCc2c1cnn2-c1cc(F)cc(F)c1)c1cccc2nccnc12` (stereo not given) as the compound, how does the Potency read?
The Potency was “inactive”.

Which Potency does the source give for `COc1ccc(-c2csc(NC(=O)CSc3nnc(NC4CC4)s3)n2)cc1OC` here?
The Potency was inconclusive: 35.3 µM [falling, single point].

Which Potency does the source give for `O=C(NC1CCCc2c1cnn2-c1ccc(F)cc1F)c1cccc(Cn2cccn2)c1` (stereo not given) here?
Its Potency is inconclusive: 35.3 µM [falling, single point].

For `COc1ccc(OC)c(NC(=S)N2CCN(c3ccc(Cl)cc3)CC2)c1`, which Potency is on record?
Its Potency is inconclusive: 28.1 µM [falling, partial curve, poor fit].

For `CCOc1ccc(CCNC(=O)c2cc3sccc3n2C)cc1OCC`, which Potency is on record?
The Potency was “inactive”.

With `O=C(Cc1cccs1)Nc1nc(-c2ccncc2)cs1` as the compound, how does the Potency read?
Its Potency is “inactive”.

Which Potency does the source give for `CC(C)(C)n1ncc2c(=O)n(Cc3ccc(-c4ccccc4C#N)cc3)cnc21` here?
Its Potency is “inactive”.

Which Potency does the source give for `CCOC(=O)C1CCN(C(=O)C(C)(C)NC(=O)Nc2ccc3ccccc3c2)CC1` here?
Its Potency is “inactive”.

For `CCNC(=O)C1CCN(C(=O)C(C)(C)NC(=O)Nc2ccccc2Cl)CC1`, which Potency is on record?
The Potency was inconclusive: 15.8 µM [falling, partial curve, poor fit].

With `O=C(N[C@H]1CCCc2c1cnn2-c1ccc(F)cc1F)c1ccccn1` as the compound, how does the Potency read?
Its Potency is inconclusive: 14.1 µM [activator, partial curve].
